Results reported in paper PMC10449902.
These are yes or no findings as the source states them, for the method shown. Binding seen in cells or lysates may run through a third protein. Some entries that bind do so weakly or less than the wild type.

Sequences of proteins named here, by UniProt entry; tags and fusion partners are left off.
UniProt Q9HWE5: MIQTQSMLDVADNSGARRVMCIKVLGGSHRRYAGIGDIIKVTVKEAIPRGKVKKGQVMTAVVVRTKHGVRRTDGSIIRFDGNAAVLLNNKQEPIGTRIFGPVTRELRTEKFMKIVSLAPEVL
UniProt Q02SH2: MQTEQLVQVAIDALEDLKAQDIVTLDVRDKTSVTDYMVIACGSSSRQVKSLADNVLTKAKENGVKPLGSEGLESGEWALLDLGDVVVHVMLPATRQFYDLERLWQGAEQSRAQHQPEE

Target: rplN (Pseudomonas aeruginosa (endogenous in strain PAO1)) (UniProt Q9HWE5)
Test: cross-linking; XL-MS: pooled SEC fractions F33–F38 (70S ribosome peak) of ϕKZ-infected PAO1 lysate, cross-linked 1 h at RT with 5 mM DSSO; link FDR 5%

binding: binds
Substance: ribosome silencing factor rsfS (from UniProt Q02SH2 1-118)
